Reference: publication doi:10.1101/2022.09.25.509437
Results are given in words; binding and its absence hold for the method and conditions named. Some entries that bind do so weakly or less than the wild type.

By UniProt entry, the sequences of proteins in these tests, tags left out. Residues count along the entry.
UniProt P84903, residues 23-685: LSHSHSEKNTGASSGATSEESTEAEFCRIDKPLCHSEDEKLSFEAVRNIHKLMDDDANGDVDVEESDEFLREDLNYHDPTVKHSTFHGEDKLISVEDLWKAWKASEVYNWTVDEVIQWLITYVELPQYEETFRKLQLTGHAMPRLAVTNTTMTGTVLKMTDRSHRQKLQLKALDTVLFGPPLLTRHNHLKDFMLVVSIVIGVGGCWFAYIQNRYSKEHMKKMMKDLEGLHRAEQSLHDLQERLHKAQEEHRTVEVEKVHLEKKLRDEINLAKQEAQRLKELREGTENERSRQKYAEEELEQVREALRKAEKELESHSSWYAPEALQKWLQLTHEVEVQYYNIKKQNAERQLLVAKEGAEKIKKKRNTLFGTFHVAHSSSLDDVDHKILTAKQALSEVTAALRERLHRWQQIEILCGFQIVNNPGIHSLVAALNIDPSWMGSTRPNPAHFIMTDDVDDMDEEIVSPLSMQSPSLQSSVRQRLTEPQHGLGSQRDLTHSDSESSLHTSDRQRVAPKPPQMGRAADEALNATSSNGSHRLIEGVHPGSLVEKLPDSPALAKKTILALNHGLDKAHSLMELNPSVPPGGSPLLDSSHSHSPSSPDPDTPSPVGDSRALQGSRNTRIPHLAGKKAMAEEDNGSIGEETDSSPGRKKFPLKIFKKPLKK

Target: STIM1 (stromal interaction molecule 1) (rat (endogenous in RBL-2H3)) (UniProt P84903)
Test: native gel or EMSA

binding: binds
Substance: STIM1 (stromal interaction molecule 1) (from UniProt P84903 23-685)
